Test results: the supplement of paper PMC8728848
Some of the results follow.

Tests used:
Assay in all cases: glycan array binding signal (z-score within array); higher = stronger binding
Settings in all cases: glycan notation: IUPAC condensed, linker removed
Gal(b1-2)Gal = target: Gal(b1-2)Gal
Summary of the method: (§1)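 Negative Z-scores can be read as non-binding. The Z-score is calculated within each array and then averaged across arrays of one protein sequence at different concentrations or buffers and across linkers. Arrays, 3228 in all, were curated from the Consortium for Functional Glycomics database and kept only where the protein sequence was available.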

Gal(b1-3)Gal = target: Gal(b1-3)Gal
Summary of the method: as §1

Gal(b1-3)Gal(b1-4)GlcNAc = target: Gal(b1-3)Gal(b1-4)GlcNAc
Summary of the method: as §1

Gal(b1-3)GalNAc = target: Gal(b1-3)GalNAc
Summary of the method: as §1

[1] = target: Gal(b1-3)GalNAc(a1-3)[Fuc(a1-2)]Gal(b1-4)Glc
Summary of the method: as §1

[2] = target: Gal(b1-3)GalNAc(a1-3)[Fuc(a1-2)]Gal(b1-4)GlcNAc
Summary of the method: as §1

Gal(b1-3)GalNAc(b1-3)Gal = target: Gal(b1-3)GalNAc(b1-3)Gal
Summary of the method: as §1

[3] = target: Gal(b1-3)GalNAc(b1-3)Gal(a1-4)Gal(b1-4)Glc
Summary of the method: as §1

[4] = target: Gal(b1-3)GalNAc(b1-4)Gal(b1-4)Glc
Summary of the method: as §1

[5] = target: Gal(b1-3)GalNAc(b1-4)[Neu5Ac(a2-3)]Gal(b1-4)Glc
Summary of the method: as §1

Gal(b1-3)GlcNAc = target: Gal(b1-3)GlcNAc
Summary of the method: as §1

[6] = target: Gal(b1-3)GlcNAc(a1-3)Gal(b1-4)GlcNAc
Summary of the method: as §1

[7] = target: Gal(b1-3)GlcNAc(a1-6)Gal(b1-4)GlcNAc
Summary of the method: as §1

Gal(b1-3)GlcNAc(b1-2)Man = target: Gal(b1-3)GlcNAc(b1-2)Man
Summary of the method: as §1

[8] = target: Gal(b1-3)GlcNAc(b1-2)Man(a1-3)[Gal(b1-3)GlcNAc(b1-2)Man(a1-6)]Man(b1-4)GlcNAc(b1-4)GlcNAc
Summary of the method: as §1

[9] = target: Gal(b1-3)GlcNAc(b1-2)Man(a1-3)[Gal(b1-3)GlcNAc(b1-2)Man(a1-6)]Man(b1-4)GlcNAc(b1-4)[Fuc(a1-6)]GlcNAc
Summary of the method: as §1

[10] = target: Gal(b1-3)GlcNAc(b1-2)Man(a1-3)[GlcNAc(b1-4)][Gal(b1-3)GlcNAc(b1-2)Man(a1-6)]Man(b1-4)GlcNAc(b1-4)GlcNAc
Summary of the method: as §1

[11] = target: Gal(b1-3)GlcNAc(b1-2)[Gal(b1-3)GlcNAc(b1-6)]Man(a1-6)[Gal(b1-3)GlcNAc(b1-2)Man(a1-3)]Man(b1-4)GlcNAc(b1-4)GlcNAc
Summary of the method: as §1

[12] = target: Gal(b1-3)GlcNAc(b1-3)Gal(b1-3)GlcNAc
Summary of the method: as §1

[13] = target: Gal(b1-3)GlcNAc(b1-3)Gal(b1-4)Glc
Summary of the method: as §1

[14] = target: Gal(b1-3)GlcNAc(b1-3)Gal(b1-4)GlcNAc
Summary of the method: as §1

[15] = target: Gal(b1-3)GlcNAc(b1-3)Gal(b1-4)GlcNAc(b1-2)Man(a1-3)[Gal(b1-3)GlcNAc(b1-3)Gal(b1-4)GlcNAc(b1-2)Man(a1-6)]Man(b1-4)GlcNAc(b1-4)GlcNAc
Summary of the method: as §1

[16] = target: Gal(b1-3)GlcNAc(b1-3)Gal(b1-4)GlcNAc(b1-2)[Gal(b1-3)GlcNAc(b1-3)Gal(b1-4)GlcNAc(b1-6)]Man(a1-6)[Gal(b1-3)GlcNAc(b1-3)Gal(b1-4)GlcNAc(b1-2)Man(a1-3)]Man(b1-4)GlcNAc(b1-4)[Fuc(a1-6)]GlcNAc
Summary of the method: as §1

[17] = target: Gal(b1-3)GlcNAc(b1-3)Gal(b1-4)GlcNAc(b1-3)Gal(b1-4)GlcNAc(b1-2)[Gal(b1-3)GlcNAc(b1-3)Gal(b1-4)GlcNAc(b1-3)Gal(b1-4)GlcNAc(b1-6)]Man(a1-6)[Gal(b1-3)GlcNAc(b1-3)Gal(b1-4)GlcNAc(b1-3)Gal(b1-4)GlcNAc(b1-2)Man(a1-3)]Man(b1-4)GlcNAc(b1-4)[Fuc(a1-6)]GlcNAc
Summary of the method: as §1

[18] = target: Gal(b1-3)GlcNAc(b1-3)Gal(b1-4)GlcNAc(b1-6)[Gal(b1-3)GlcNAc(b1-3)]Gal(b1-4)Glc
Summary of the method: as §1

[19] = target: Gal(b1-3)GlcNAc(b1-3)Gal(b1-4)[Fuc(a1-3)]GlcNAc
Summary of the method: as §1

[20] = target: Gal(b1-3)GlcNAc(b1-3)Gal(b1-4)[Fuc(a1-3)]GlcNAc(b1-6)[Gal(b1-3)GlcNAc(b1-3)]Gal(b1-4)Glc
Summary of the method: as §1

[21] = target: Gal(b1-3)GlcNAc(b1-3)GalNAc
Summary of the method: as §1

[22] = target: Gal(b1-3)GlcNAc(b1-6)Gal(b1-4)GlcNAc
Summary of the method: as §1

[23] = target: Gal(b1-3)GlcNAc(b1-6)GalNAc
Summary of the method: as §1

[24] = target: Gal(b1-3)GlcNAc(b1-6)[Gal(b1-3)]GalNAc
Summary of the method: as §1

Gal(b1-3)GlcNAc6S = target: Gal(b1-3)GlcNAc6S
Summary of the method: as §1

[25] = target: Gal(b1-3)[Fuc(a1-4)]GlcNAc
Summary of the method: as §1

[26] = target: Gal(b1-3)[Fuc(a1-4)]GlcNAc(b1-2)Man
Summary of the method: as §1

[27] = target: Gal(b1-3)[Fuc(a1-4)]GlcNAc(b1-2)Man(a1-3)[Gal(b1-3)[Fuc(a1-4)]GlcNAc(b1-2)Man(a1-6)]Man(b1-4)GlcNAc(b1-4)[Fuc(a1-6)]GlcNAc
Summary of the method: as §1

[28] = target: Gal(b1-3)[Fuc(a1-4)]GlcNAc(b1-3)Gal(b1-3)[Fuc(a1-4)]GlcNAc
Summary of the method: as §1

[29] = target: Gal(b1-3)[Fuc(a1-4)]GlcNAc(b1-3)Gal(b1-4)[Fuc(a1-3)]GlcNAc
Summary of the method: as §1

[30] = target: Gal(b1-3)[Fuc(a1-4)]GlcNAc(b1-6)GalNAc
Summary of the method: as §1

[31] = target: Gal(b1-3)[GlcNAc(b1-6)]GalNAc
Summary of the method: as §1

[32] = target: Gal(b1-3)[Neu5Ac(a2-6)]GalNAc
Summary of the method: as §1

[33] = target: Gal(b1-3)[Neu5Ac(a2-6)]GlcNAc(b1-4)Gal(b1-4)Glc
Summary of the method: as §1

[34] = target: Gal(b1-3)[Neu5Ac(b2-6)]GalNAc
Summary of the method: as §1

Gal(b1-4)Gal = target: Gal(b1-4)Gal
Summary of the method: as §1

[35] = target: Gal(b1-4)GalNAc(a1-3)[Fuc(a1-2)]Gal(b1-4)GlcNAc
Summary of the method: as §1

[36] = target: Gal(b1-4)GalNAc(b1-3)[Fuc(a1-2)]Gal(b1-4)GlcNAc
Summary of the method: as §1

B1: pilr alpha (protein)
chain: MLYGVTQPKHLSASMGGSVEIPFSFYYPWELATAPDVRISWRRGHFHRQSFYSTRPPSIHKDYVNRLFLNWTEGQKSGFLRISNLQKQDQSVYFCRVELDTRSSGRQQWQSIEGTKLSIT
**Q.** What does the source list for B1?
**A.** glycan array binding signal (z-score) (Gal(b1-2)Gal): -0.398; glycan array binding signal (z-score) (Gal(b1-3)Gal): -0.475; glycan array binding signal (z-score) (Gal(b1-3)Gal(b1-4)GlcNAc): 0.688; glycan array binding signal (z-score) (Gal(b1-3)GalNAc): -0.302; glycan array binding signal (z-score) [1]: 0.387; glycan array binding signal (z-score) [2]: 0.103; glycan array binding signal (z-score) (Gal(b1-3)GalNAc(b1-3)Gal): -0.182; glycan array binding signal (z-score) [3]: -0.094; glycan array binding signal (z-score) [4]: 2.46; glycan array binding signal (z-score) [5]: 0.1; glycan array binding signal (z-score) (Gal(b1-3)GlcNAc): -0.571; glycan array binding signal (z-score) [6]: -0.031; glycan array binding signal (z-score) [7]: 0.177; glycan array binding signal (z-score) (Gal(b1-3)GlcNAc(b1-2)Man): -0.255; glycan array binding signal (z-score) [8]: 0.674; glycan array binding signal (z-score) [9]: -0.587; glycan array binding signal (z-score) [10]: 0.778; glycan array binding signal (z-score) [11]: -0.542; glycan array binding signal (z-score) [12]: -0.764; glycan array binding signal (z-score) [13]: -0.354; glycan array binding signal (z-score) [14]: -0.556; glycan array binding signal (z-score) [15]: 0.14; glycan array binding signal (z-score) [16]: 0.467; glycan array binding signal (z-score) [17]: 0.296; glycan array binding signal (z-score) [18]: -0.848; glycan array binding signal (z-score) [19]: -0.24; glycan array binding signal (z-score) [20]: 0.008; glycan array binding signal (z-score) [21]: -0.013; glycan array binding signal (z-score) [22]: -0.459; glycan array binding signal (z-score) [23]: 0.108; glycan array binding signal (z-score) [24]: 0.219; glycan array binding signal (z-score) (Gal(b1-3)GlcNAc6S): -0.425; glycan array binding signal (z-score) [25]: -0.472; glycan array binding signal (z-score) [26]: 0.268; glycan array binding signal (z-score) [27]: 0.007; glycan array binding signal (z-score) [28]: -0.709; glycan array binding signal (z-score) [29]: -0.686; glycan array binding signal (z-score) [30]: -0.479; glycan array binding signal (z-score) [31]: 0.136; glycan array binding signal (z-score) [32]: -0.253; glycan array binding signal (z-score) [33]: -0.371; glycan array binding signal (z-score) [34]: 0.12; glycan array binding signal (z-score) (Gal(b1-4)Gal): 0.003; glycan array binding signal (z-score) [35]: -0.5; glycan array binding signal (z-score) [36]: -0.343
